Data from patent EP2446893A1 (priority 2010, dated 2012).
At least one peptide structure holds a part that was inferred or is arguable (an end, a ring closure or a residue). No end group written: not given here.

Target: T1, Oatp1b2 (Rattus norvegicus, UniProt Q9QZX8)
T1 sequence (Q9QZX8 1-687): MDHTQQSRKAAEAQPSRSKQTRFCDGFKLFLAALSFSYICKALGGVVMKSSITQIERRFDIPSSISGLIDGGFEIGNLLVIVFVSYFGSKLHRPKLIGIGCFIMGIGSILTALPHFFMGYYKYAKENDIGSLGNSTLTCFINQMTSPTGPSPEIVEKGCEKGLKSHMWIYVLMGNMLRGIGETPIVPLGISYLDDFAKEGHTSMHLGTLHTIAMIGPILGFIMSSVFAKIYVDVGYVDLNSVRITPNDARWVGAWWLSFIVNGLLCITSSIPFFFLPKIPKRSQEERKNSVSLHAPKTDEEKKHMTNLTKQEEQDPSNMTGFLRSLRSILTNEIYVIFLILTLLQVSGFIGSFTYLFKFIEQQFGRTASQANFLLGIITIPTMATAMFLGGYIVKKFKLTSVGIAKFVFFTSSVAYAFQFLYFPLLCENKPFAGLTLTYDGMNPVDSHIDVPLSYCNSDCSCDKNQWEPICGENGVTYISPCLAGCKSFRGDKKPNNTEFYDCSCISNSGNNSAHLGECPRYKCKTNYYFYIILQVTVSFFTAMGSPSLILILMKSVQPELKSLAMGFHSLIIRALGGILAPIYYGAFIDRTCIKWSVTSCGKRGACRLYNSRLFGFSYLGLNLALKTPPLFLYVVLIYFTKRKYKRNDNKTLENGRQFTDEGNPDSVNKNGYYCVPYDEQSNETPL

## YYSPVPY [linear version of the same peptide, Tyr-Tyr-Ser-Pro-Val-Pro-Tyr]
  potency compared with another peptide: considerably less potent
